Reference: doi:10.1101/2022.04.15.488448
No constants are given. Whether binding was seen depends on the method and setting. Binding seen in cells or lysates may run through a third protein. Binding can be weak; no strength is given.

Molecular target: C-terminal 3×FLAG-tagged 1700029I15Rik (mouse)
Test: co-IP

B1: SPPL2C (recombinant, expressed in HEK293T cells) (protein, UniProt A2A6C4 29-690)
chain: EYGLVRVVSKNWSKDYCVLYSSDYVNLPRDLHHAPLLSLHDGTKTPWCPDEDSFHQAQDSSPRQRPLHQTTTMVTRGNCSFYAKGWLAQDQGAQGLLIVSRARNQQCSDTISKPQDPSKPWPALTIPVAVLRYTDMLDIVSHTYGDTDVRVAMFAPLEPVTDYNMAIIFILAVGTVAAGGYWAGLMEANKLQRRQAQRGGGLGGHNQQQTVAAERSQRAWEDDDFEDAPMDFTPAMTGAVVTMSCSIMILLYFFYDCFVYVMIGIFSLGASTGLYSCLAPILCHLPLWRYQWVLPGQRVSVTWPLLLLAGLCAMVTVLWVIHRNEDHWAWLLQDTLGVAYCLFVLRRVRLPTFKNCTLFLLALLAFDVFFVFITPLFTKTGESIMVEVASGPADSSSHERLPMVLKVPRLSFSALTLCNQPFSILGFGDIVVPGFLVAYCHRFDMQVQSRQVYYMACTVAYAVGLLVTFVAMILMQMGQPALLYLVSSTLLTSLAVATCRQEFTLFWTGQGRAKIPAEPVAQPCIASAVGSKMKLEDAKDSRTTNRFEQAVDGESGDLESSTGDDMAEMVTLSEDEATSPEGHSESSEGWSDTNLDPNELPSGSPMALEAMLIPLIQPIPHPSELGHIRTQSRVHDSSLPWMGLHKRKGLKVKKSMSAQAPL
With B1 the binding was “binds”.
